# Data as given in PubChem BioAssay AID1259327 (Drosophila RNAi Screening Center, 2017)
# Screen: 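Data from controls in screens of zinc and manganese toxicity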
# System: Drosophila S2R+ cells
# Reagent: long dsRNA against Drosophila genes
# Timing: 5 days (water added on day 4, read one day later)
# Conditions: water added as vehicle, no metal, one day before read-out
# Measured: 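Luciferase ATP signal per well, normalised to plate mean, duplicate average converted to z-score across plates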
# Direction: ATP z-score: higher = more total ATP than typical wells; ATP luminescence: higher = more total ATP
# Rule for the call: 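Called active when the ATP z-score exceeds 1.5 or falls below -1.5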
# Calls: active = hit: ATP up or down; inactive = no clear ATP change
# In all, the deposit lists about 3,100 reagents; this is an unselected part. 378 of them (12%) were called active. 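Hits include both directions; z-score sign shows ATP rise or fall; raw luminescence values are not plate-normalised.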 The record does not give: the amount of reagent.
predicted target,DRSC id,"ATP z-score, duplicate mean","ATP luminescence, replicate 1 (RLU)","ATP luminescence, replicate 2 (RLU)",outcome
CG5850,DRSC02905,-0.727,4.41e5,4.14e5,inactive
CG5850,DRSC39491,-0.887,4.18e5,3.72e5,inactive
Nup93-1 (Nucleoporin 93kD-1),DRSC19344,0.589,7.80e5,7.53e5,inactive
Nup93-1 (Nucleoporin 93kD-1),DRSC39780,1.35,5.54e5,5.93e5,inactive
zyd (zydeco),DRSC20716,-1.07,5.90e5,6.65e5,inactive
zyd (zydeco),DRSC39493,0.0346,4.86e5,4.26e5,inactive
CG13160,DRSC06284,1.11,7.34e5,7.06e5,inactive
emei,DRSC10897,0.0946,7.34e5,7.73e5,inactive
emei,DRSC22684,5.24,9.84e5,1.06e6,active
Best1 (Bestrophin 1),DRSC26475,-0.35,8.96e5,9.27e5,inactive
Best1 (Bestrophin 1),DRSC39616,-0.32,4.38e5,4.49e5,inactive
Ten-m (Tenascin major),DRSC11664,-0.512,6.87e5,6.87e5,inactive
Ten-m (Tenascin major),DRSC11882,-0.413,8.62e5,8.22e5,inactive
Nup54 (Nucleoporin 54kD),DRSC07282,1.45,8.01e5,9.73e5,inactive
Toll-7,DRSC29640,0.562,9.42e5,8.43e5,inactive
Toll-7,DRSC39883,-1.87,4.69e5,3.75e5,active
CG32983,DRSC22367,0.197,8.78e5,8.71e5,inactive
Gr89a (Gustatory receptor 89a),DRSC15023,-0.276,2.67e5,7.82e5,inactive
Gr89a (Gustatory receptor 89a),DRSC39468,-0.203,4.68e5,4.12e5,inactive
Tre1 (Trapped in endoderm 1),DRSC18726,3.15,1.07e6,6.21e5,active
Tre1 (Trapped in endoderm 1),DRSC28244,-0.547,8.50e5,9.92e5,inactive
anne (anne boleyn),DRSC17103,-1.16,8.01e5,6.89e5,inactive
anne (anne boleyn),DRSC29952,0.517,5.93e5,6.54e5,inactive
CG1662,DRSC19754,-0.862,6.02e5,6.31e5,inactive

Next part, starting with the last 5 of the part before.
predicted target,DRSC id,"ATP z-score, duplicate mean","ATP luminescence, replicate 1 (RLU)","ATP luminescence, replicate 2 (RLU)",outcome
Tre1 (Trapped in endoderm 1),DRSC18726,3.15,1.07e6,6.21e5,active
Tre1 (Trapped in endoderm 1),DRSC28244,-0.547,8.50e5,9.92e5,inactive
anne (anne boleyn),DRSC17103,-1.16,8.01e5,6.89e5,inactive
anne (anne boleyn),DRSC29952,0.517,5.93e5,6.54e5,inactive
CG1662,DRSC19754,-0.862,6.02e5,6.31e5,inactive
CG10051,DRSC05959,0.0206,6.26e5,6.16e5,inactive
5-HT7 (5-hydroxytryptamine (serotonin) receptor 7),DRSC12635,0.794,7.80e5,7.95e5,inactive
5-HT7 (5-hydroxytryptamine (serotonin) receptor 7),DRSC24891,0.791,9.33e5,9.64e5,inactive
Amnionless,DRSC00317,-0.141,6.81e5,7.01e5,inactive
CG15706,DRSC06577,-0.282,6.23e5,5.65e5,inactive
CG15706,DRSC39576,-0.706,4.31e5,4.03e5,inactive
Kap-alpha1 (karyopherin alpha1),DRSC11356,-0.203,9.09e5,8.32e5,inactive
Catsup (Catecholamines up),DRSC03288,0.22,7.47e5,7.52e5,inactive
Catsup (Catecholamines up),DRSC25727,-0.446,7.98e5,7.91e5,inactive
ABCB7 (ATP binding cassette subfamily B member 7),DRSC08603,0.391,6.26e5,6.84e5,inactive
SP1173,DRSC11277,0.445,8.06e5,7.50e5,inactive
mew (multiple edematous wings),DRSC18971,1.31,7.65e5,7.12e5,inactive
mew (multiple edematous wings),DRSC20352,-1.85,5.00e5,6.73e5,active
Eglp3 (Entomoglyceroporin 3),DRSC04293,0.133,7.90e5,6.91e5,inactive
Eglp3 (Entomoglyceroporin 3),DRSC25630,-0.803,7.83e5,6.74e5,inactive
Osi18 (Osiris 18),DRSC12181,0.509,9.95e5,9.31e5,inactive
Toll-6,DRSC11304,0.401,9.16e5,9.79e5,inactive
Toll-6,DRSC39854,1.79,6.54e5,5.51e5,active
Mct1 (Monocarboxylate transporter 1),DRSC18681,-0.291,5.42e5,7.68e5,inactive
Mct1 (Monocarboxylate transporter 1),DRSC29006,-0.592,8.42e5,6.69e5,inactive
CG18635,DRSC06780,0.0963,7.45e5,7.28e5,inactive
CG18635,DRSC25971,0.684,8.07e5,1.06e6,inactive
